This is an account of results in publication PMC9243396.

By UniProt entry, the sequences of proteins in these tests, tags left out.
UniProt P40692: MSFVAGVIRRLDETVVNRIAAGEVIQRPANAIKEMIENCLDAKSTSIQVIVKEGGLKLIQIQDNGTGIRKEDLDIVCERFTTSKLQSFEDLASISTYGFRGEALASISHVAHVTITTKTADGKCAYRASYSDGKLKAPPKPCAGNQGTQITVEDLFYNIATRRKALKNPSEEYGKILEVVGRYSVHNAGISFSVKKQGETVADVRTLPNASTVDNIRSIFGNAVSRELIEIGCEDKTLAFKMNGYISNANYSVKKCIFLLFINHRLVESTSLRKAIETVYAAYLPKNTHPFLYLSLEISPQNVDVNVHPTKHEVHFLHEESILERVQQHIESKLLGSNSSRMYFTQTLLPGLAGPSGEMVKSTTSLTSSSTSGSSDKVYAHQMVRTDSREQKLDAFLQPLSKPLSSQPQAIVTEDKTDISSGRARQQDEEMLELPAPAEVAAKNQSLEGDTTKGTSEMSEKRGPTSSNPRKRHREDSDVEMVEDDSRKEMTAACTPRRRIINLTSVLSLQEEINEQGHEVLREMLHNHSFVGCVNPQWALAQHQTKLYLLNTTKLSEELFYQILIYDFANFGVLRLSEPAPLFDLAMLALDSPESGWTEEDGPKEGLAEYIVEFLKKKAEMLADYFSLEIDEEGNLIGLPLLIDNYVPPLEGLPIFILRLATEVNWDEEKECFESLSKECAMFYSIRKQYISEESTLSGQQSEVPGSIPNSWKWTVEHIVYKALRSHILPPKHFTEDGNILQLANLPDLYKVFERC
UniProt P43246: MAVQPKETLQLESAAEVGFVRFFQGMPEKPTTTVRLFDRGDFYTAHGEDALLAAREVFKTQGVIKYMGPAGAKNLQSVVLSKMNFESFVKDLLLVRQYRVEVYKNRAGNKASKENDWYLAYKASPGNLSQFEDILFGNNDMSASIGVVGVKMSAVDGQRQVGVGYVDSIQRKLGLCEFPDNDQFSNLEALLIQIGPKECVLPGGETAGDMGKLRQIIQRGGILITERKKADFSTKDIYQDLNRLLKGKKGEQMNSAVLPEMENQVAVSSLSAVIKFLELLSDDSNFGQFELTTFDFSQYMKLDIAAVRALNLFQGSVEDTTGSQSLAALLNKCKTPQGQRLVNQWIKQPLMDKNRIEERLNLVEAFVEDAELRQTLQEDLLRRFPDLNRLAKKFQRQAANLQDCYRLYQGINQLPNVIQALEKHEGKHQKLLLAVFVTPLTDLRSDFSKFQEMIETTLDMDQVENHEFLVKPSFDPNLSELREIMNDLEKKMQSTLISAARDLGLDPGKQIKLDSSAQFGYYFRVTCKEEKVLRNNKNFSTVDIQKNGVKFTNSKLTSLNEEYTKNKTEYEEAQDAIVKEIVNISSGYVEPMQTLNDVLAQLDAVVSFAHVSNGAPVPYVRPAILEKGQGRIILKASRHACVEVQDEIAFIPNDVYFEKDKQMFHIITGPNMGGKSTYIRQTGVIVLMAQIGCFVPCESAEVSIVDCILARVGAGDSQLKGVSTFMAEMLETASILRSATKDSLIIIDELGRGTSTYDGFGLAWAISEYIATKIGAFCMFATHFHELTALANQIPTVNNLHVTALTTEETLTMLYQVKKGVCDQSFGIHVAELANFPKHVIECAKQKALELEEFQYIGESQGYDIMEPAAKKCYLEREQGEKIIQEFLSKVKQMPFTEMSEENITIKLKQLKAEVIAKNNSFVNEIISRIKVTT
UniProt Q149N8: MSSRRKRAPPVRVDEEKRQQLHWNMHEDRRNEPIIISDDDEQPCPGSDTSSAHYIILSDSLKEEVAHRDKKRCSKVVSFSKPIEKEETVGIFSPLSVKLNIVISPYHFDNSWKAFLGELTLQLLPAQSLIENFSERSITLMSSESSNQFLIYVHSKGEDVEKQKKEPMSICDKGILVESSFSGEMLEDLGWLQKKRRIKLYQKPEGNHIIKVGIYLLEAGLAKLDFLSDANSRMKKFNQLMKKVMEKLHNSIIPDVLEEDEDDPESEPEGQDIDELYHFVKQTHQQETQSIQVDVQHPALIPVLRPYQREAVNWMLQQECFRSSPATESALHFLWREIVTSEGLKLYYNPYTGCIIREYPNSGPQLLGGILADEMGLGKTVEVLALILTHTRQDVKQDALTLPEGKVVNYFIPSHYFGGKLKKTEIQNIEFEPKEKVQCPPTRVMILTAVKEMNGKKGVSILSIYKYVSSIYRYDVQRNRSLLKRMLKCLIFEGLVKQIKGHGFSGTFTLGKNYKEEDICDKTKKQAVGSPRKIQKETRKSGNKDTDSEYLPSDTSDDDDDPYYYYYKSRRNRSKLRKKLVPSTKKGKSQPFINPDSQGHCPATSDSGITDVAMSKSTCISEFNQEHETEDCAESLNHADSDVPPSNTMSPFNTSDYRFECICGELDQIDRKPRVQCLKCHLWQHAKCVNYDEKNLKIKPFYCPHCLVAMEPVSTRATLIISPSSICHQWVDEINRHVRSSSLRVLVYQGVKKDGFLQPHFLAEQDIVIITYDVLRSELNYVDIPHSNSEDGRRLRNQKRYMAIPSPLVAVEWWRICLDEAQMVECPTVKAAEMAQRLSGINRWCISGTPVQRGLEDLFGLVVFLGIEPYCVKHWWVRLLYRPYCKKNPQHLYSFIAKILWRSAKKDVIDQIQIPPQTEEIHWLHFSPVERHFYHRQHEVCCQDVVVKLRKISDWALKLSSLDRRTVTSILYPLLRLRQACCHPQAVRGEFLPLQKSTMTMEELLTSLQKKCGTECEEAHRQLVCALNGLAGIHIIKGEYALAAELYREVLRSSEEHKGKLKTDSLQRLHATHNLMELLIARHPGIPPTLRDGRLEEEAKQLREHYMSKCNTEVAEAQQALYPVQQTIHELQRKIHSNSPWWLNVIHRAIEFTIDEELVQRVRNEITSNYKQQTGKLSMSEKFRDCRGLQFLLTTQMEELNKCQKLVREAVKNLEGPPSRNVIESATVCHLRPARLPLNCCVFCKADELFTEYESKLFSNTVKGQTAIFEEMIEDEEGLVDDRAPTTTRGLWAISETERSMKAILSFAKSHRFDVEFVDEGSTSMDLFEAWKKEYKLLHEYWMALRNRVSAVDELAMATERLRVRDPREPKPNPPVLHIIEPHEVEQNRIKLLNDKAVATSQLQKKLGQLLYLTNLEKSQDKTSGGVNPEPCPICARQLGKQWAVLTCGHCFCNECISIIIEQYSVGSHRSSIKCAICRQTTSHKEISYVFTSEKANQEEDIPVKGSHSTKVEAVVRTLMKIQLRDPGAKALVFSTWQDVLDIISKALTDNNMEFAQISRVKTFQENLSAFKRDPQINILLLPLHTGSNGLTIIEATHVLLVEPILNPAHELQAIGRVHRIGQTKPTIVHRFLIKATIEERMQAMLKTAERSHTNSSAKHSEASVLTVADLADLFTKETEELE

Assay [1] addresses MLH1 (endogenous, HeLa) (human (endogenous in HeLa)) (UniProt P40692). Put plainly: co-IP; HeLa synchronised by double thymidine block, released with DMSO or 0.2 µM MNNG; nuclear extract at the 6-h time point (S phase); anti-MLH1 beads; immunoblot for SHPRH.
The target is the same in assay [2]. Briefly: co-IP; HeLa nuclear fractions, cells treated with DMSO or 30 μM MNNG; anti-MLH1 or anti-MSH2 on magnetic protein A/G beads, 4°C overnight, increasing salt washes; immunoblot for HLTF and SHPRH.
Assay [3] deals with MSH2 (endogenous, HeLa) (human (endogenous in HeLa)) (UniProt P43246). Described as above.
The target of assay [4] is MLH1 (endogenous, HeLa) (human (endogenous in HeLa)) (UniProt P40692). Put plainly: condition: only cells in G1 or G2/M after release from the double thymidine block; co-IP; HeLa synchronised by double thymidine block, released with DMSO or 0.2 µM MNNG; nuclear extracts at time points in G1 or G2/M; anti-MLH1 beads; immunoblot for SHPRH.

Results are given in words; binding and its absence hold for the method and conditions named. Binding seen in cells or lysates may run through a third protein. Some entries that bind do so weakly or less than the wild type.

For “SNF2 Histone Linker PHD Ring Helicase (SHPRH) (endogenous, HeLa) (from UniProt Q149N8 1-1683)”, the binding entry is recorded as “binds” in assay [1], “binds” in assay [2], “no binding” in assay [3] and “no binding” in assay [4].
